{"source": "PubChem BioAssay AID1259308 (NCATS, 2017)", "aim": "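Candidate targets for better recombinant protein yield in mammalian cells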 (primary screen)", "system": "human HEK293 embryonic kidney cells stably expressing firefly luciferase (HEK-CMV-Luc2-Hygro)", "knock-down reagent": "single siRNA against human genes, 0.8 pmol siRNA per well", "timing": "72 h", "detection": "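Reporter luminescence and viable-cell signal on separate replicate plates, given as percent of non-targeting control and median/MAD z-scores, plus per-cell luciferase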", "direction": "total luciferase, z-score: higher = more reporter protein produced", "rule for the call": "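Active when the median/MAD z-score for overall luciferase is greater than 3; a gene was taken forward for validation with new siRNAs if at least two of its three siRNAs passed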", "calls": "active = raised luciferase; inactive = no rise", "note": "The whole screen tested about 59,000 reagents; below is a part drawn at random. About 1,510 of all reagents (2.6%) were called active. 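Calls use total luciferase alone and ignore viability, so some active siRNAs may act by altering cell number.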 Reagents against one gene are numbered here. Further read-outs or replicates are left out here. Reagent sequences are not shown."}
{"Gene":"PBX4 (GeneID 80714)","reagent":1,"total luciferase, z-score":-2.77,"outcome":"inactive"}
{"Gene":"PBX4 (GeneID 80714)","reagent":2,"total luciferase, z-score":-0.0663,"outcome":"inactive"}
{"Gene":"PBX4 (GeneID 80714)","reagent":3,"total luciferase, z-score":-0.662,"outcome":"inactive"}
{"Gene":"TMC1 (GeneID 117531)","reagent":1,"total luciferase, z-score":0.418,"outcome":"inactive"}
{"Gene":"TMC1 (GeneID 117531)","reagent":2,"total luciferase, z-score":0.416,"outcome":"inactive"}
{"Gene":"TMC1 (GeneID 117531)","reagent":3,"total luciferase, z-score":-0.0658,"outcome":"inactive"}
{"Gene":"NUTM2A-AS1 (GeneID 728190)","reagent":1,"total luciferase, z-score":4.48,"outcome":"active"}
{"Gene":"NUTM2A-AS1 (GeneID 728190)","reagent":2,"total luciferase, z-score":-2.36,"outcome":"inactive"}
{"Gene":"NUTM2A-AS1 (GeneID 728190)","reagent":3,"total luciferase, z-score":1.75,"outcome":"inactive"}
{"Gene":"LMBRD1 (GeneID 55788)","reagent":1,"total luciferase, z-score":-0.426,"outcome":"inactive"}
{"Gene":"LMBRD1 (GeneID 55788)","reagent":2,"total luciferase, z-score":0.56,"outcome":"inactive"}
{"Gene":"LMBRD1 (GeneID 55788)","reagent":3,"total luciferase, z-score":-0.915,"outcome":"inactive"}

Not a retest: an excerpt of the list.
{"Gene":"NUTM2A-AS1 (GeneID 728190)","reagent":2,"total luciferase, z-score":-2.36,"outcome":"inactive"}
{"Gene":"NUTM2A-AS1 (GeneID 728190)","reagent":3,"total luciferase, z-score":1.75,"outcome":"inactive"}
{"Gene":"LMBRD1 (GeneID 55788)","reagent":1,"total luciferase, z-score":-0.426,"outcome":"inactive"}
{"Gene":"LMBRD1 (GeneID 55788)","reagent":2,"total luciferase, z-score":0.56,"outcome":"inactive"}

Additional reagents follow:
{"Gene":"CIMAP1D (GeneID 284451)","reagent":1,"total luciferase, z-score":0.334,"outcome":"inactive"}
{"Gene":"CIMAP1D (GeneID 284451)","reagent":2,"total luciferase, z-score":-0.615,"outcome":"inactive"}
{"Gene":"CIMAP1D (GeneID 284451)","reagent":3,"total luciferase, z-score":0.393,"outcome":"inactive"}
{"Gene":"ASB11 (GeneID 140456)","reagent":1,"total luciferase, z-score":2.59,"outcome":"inactive"}
{"Gene":"ASB11 (GeneID 140456)","reagent":2,"total luciferase, z-score":-0.794,"outcome":"inactive"}
{"Gene":"ASB11 (GeneID 140456)","reagent":3,"total luciferase, z-score":-1.02,"outcome":"inactive"}
{"Gene":"MYPN (GeneID 84665)","reagent":1,"total luciferase, z-score":0.185,"outcome":"inactive"}
{"Gene":"MYPN (GeneID 84665)","reagent":2,"total luciferase, z-score":-0.852,"outcome":"inactive"}
{"Gene":"MYPN (GeneID 84665)","reagent":3,"total luciferase, z-score":-0.734,"outcome":"inactive"}
{"Gene":"FAM133A (GeneID 286499)","reagent":1,"total luciferase, z-score":-0.0885,"outcome":"inactive"}
{"Gene":"FAM133A (GeneID 286499)","reagent":2,"total luciferase, z-score":-0.493,"outcome":"inactive"}
{"Gene":"FAM133A (GeneID 286499)","reagent":3,"total luciferase, z-score":0.992,"outcome":"inactive"}
{"Gene":"FAAH (GeneID 2166)","reagent":1,"total luciferase, z-score":2.34,"outcome":"inactive"}
{"Gene":"FAAH (GeneID 2166)","reagent":2,"total luciferase, z-score":0.648,"outcome":"inactive"}
{"Gene":"FAAH (GeneID 2166)","reagent":3,"total luciferase, z-score":-2.44,"outcome":"inactive"}
{"Gene":"PCGF5 (GeneID 84333)","reagent":1,"total luciferase, z-score":-1.2,"outcome":"inactive"}
{"Gene":"PCGF5 (GeneID 84333)","reagent":2,"total luciferase, z-score":-0.0999,"outcome":"inactive"}
{"Gene":"PCGF5 (GeneID 84333)","reagent":3,"total luciferase, z-score":-0.121,"outcome":"inactive"}
{"Gene":"H2AZ1 (GeneID 3015)","reagent":1,"total luciferase, z-score":0.172,"outcome":"inactive"}
{"Gene":"H2AZ1 (GeneID 3015)","reagent":2,"total luciferase, z-score":1.46,"outcome":"inactive"}
{"Gene":"H2AZ1 (GeneID 3015)","reagent":3,"total luciferase, z-score":-0.587,"outcome":"inactive"}
